Values quoted from earlier work, collected in patent US20250375396A1 (priority 2016, published 2025).
Where a name gives a salt, the structure may show the parent alone.

Settings: conjugated acid amine

## COc1cc2c(cc1OC)C(=O)C(CC1CCN(Cc3ccccc3)CC1)C2 (stereo not shown) [Donepezil HCl]
  Equilibrium Constant of Acid Amine (pKa(acid amine)): 8.6
